These are yes or no findings as the source states them, for the method shown. For some assays here: Binding seen in cells or lysates may run through a third protein. Some results given as binding are weak or reduced against the parent protein; the word gives no strength. For some assays here: Where a sequence is shown, tags or fusion partners need not be part of it.

Chains of the proteins cited; added tags and fusions are not shown.
UniProt P62068: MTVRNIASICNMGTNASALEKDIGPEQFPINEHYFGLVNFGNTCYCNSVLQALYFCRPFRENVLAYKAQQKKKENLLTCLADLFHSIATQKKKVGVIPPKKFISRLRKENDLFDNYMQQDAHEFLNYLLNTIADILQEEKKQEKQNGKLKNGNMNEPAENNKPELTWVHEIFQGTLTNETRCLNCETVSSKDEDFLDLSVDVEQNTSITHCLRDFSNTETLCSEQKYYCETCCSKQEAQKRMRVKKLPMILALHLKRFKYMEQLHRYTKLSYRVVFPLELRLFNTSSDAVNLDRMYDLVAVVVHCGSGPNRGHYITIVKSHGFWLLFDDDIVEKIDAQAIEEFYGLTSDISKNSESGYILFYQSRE

Assay [1] concerns the target USP46 (USP46 FLAG group) (human) (UniProt P62068). Nature of the assay: co-IP; IP of USP46 from cell lysate with anti-USP46 antibody and Protein A/G magnetic beads, 4°C, 6 h; IP buffer 50 mM Tris-HCl, 150 mM NaCl, 5 mM EDTA, 1% NP-40, pH 7.4; immunoblot for POU4F1. In general terms: In western blotting, separated proteins are transferred to a membrane and probed.
For a further assay, the target named is GST-tagged USP46 (human) (UniProt P62068). As to the kind of experiment: pull-down; GST or GST fusion on Glutathione Sepharose 4B beads incubated with the His-tagged protein at 4°C for 4 h; washed three times with PBS with 0.1% Triton X-100; western blot with anti-His and anti-GST; both purified.

B1: POU4F1 (protein, UniProt Q01851 1-419)
chain: MMSMNSKQPHFAMHPTLPEHKYPSLHSSSEAIRRACLPTPPLQSNLFASLDETLLARAEALAAVDIAVSQGKSHPFKPDATYHTMNSVPCTSTSTVPLAHHHHHHHHHQALEPGDLLDHISSPSLALMAGAGGAGAAAGGGGAHDGPGGGGGPGGGGGPGGGPGGGGGGGPGGGGGGPGGGLLGGSAHPHPHMHSLGHLSHPAAAAAMNMPSGLPHPGLVAAAAHHGAAAAAAAAAAGQVAAASAAAAVVGAAGLASICDSDTDPRELEAFAERFKQRRIKLGVTQADVGSALANLKIPGVGSLSQSTICRFESLTLSHNNMIALKPILQAWLEEAEGAQREKMNKPELFNGGEKKRKRTSIAAPEKRSLEAYFAVQPRPSSEKIAAIAEKLDLKKNVVRVWFCNQRQKQKRMKFSATY
With B1, the binding result in assay [1] is reported as “binds”.

B2: His-tagged POU4F1 (protein, UniProt Q01851 1-419)
chain: B1 chain
For B2, the binding entry with GST-tagged USP46 (human) was “binds”.

The values above are taken from paper PMC12900701.
